For the assay, the target named is Yes-associated protein (YAP) (rat (endogenous in primary rat chondrocytes)) (UniProt Q2EJA0). Nature of the assay: co-IP; lysate of primary rat chondrocytes (control or treated with IL-1β for 24 h; in Fig. 7I also after LIPUS) in IP lysis buffer with protease inhibitors; pre-cleared with Protein A+G magnetic beads; anti-YAP antibody overnight at 4 °C; western blot of the precipitate. A general note: In western blotting, separated proteins are transferred to a membrane and probed.

By UniProt entry, the sequences of proteins in these tests, tags left out. Where a name states a change or a piece, a line headed by the entry shows the natural chain unless it says otherwise.
UniProt Q2EJA0: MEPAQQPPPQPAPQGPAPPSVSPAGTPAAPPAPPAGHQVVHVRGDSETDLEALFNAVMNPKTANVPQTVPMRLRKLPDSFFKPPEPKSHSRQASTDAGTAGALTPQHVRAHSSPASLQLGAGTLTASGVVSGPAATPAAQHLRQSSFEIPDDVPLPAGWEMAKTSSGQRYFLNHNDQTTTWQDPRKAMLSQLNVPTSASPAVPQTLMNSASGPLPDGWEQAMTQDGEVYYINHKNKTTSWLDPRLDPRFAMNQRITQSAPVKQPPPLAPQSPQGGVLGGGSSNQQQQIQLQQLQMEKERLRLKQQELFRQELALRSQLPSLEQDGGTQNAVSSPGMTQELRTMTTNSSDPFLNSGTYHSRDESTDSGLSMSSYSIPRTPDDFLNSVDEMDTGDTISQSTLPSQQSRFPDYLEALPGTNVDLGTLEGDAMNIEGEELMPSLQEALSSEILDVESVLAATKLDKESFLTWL
UniProt D3ZYL0: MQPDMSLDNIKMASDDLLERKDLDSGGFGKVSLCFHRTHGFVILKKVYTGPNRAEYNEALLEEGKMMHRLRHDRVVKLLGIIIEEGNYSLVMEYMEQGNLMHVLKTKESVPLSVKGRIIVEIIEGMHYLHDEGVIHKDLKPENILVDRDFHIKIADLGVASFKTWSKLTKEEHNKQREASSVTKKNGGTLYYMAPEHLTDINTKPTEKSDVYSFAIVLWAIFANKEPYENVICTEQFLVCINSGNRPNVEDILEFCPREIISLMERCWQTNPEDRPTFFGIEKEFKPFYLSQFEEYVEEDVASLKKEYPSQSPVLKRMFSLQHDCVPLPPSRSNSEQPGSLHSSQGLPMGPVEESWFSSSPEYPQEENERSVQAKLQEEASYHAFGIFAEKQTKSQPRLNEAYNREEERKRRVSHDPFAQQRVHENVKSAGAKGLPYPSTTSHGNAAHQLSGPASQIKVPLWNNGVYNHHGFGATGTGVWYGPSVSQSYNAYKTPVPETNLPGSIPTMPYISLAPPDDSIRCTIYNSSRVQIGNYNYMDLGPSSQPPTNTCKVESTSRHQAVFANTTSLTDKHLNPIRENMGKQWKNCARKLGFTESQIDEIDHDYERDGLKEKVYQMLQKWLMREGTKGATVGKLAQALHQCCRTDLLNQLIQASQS

These are yes or no findings as the source states them, for the method shown. In cells and extracts the contact can be indirect. Binding can be weak; no strength is given.

Take RIPK1 (from UniProt D3ZYL0): the binding entry was “binds”.

These data come from article PMC10943805.
